Experimental data as given in PubChem BioAssay AID180 (DTP/NCI, 2004).
The list shows only some results of the screen, not a fair sample: it gathers some chemical classes. Not every dose and run of a compound is shown. T/C gives the treated animals as a percentage of the vehicle group. Some entries show no survivor count and are marked so; the dose need not have been tolerated. Schedules are NCI's codes, read here as Q, the interval in days (D) or hours (H), X, the number of doses. Some doses were run more than once; their values stand side by side, smallest first.

System: BDF1 mice, Adenocarcinoma 755 s.c., tumor weight T/C
Test: NCI In Vivo Anticancer Drug Screen. Data for tumor model Adenocarcinoma 755 (subcutaneous) in B6D2F1 (BDF1) mice
Details: T/C endpoint: mean tumor weight, schedule: Q01DX011 (ip), vehicle: saline, evaluation day not shown, higher T/C = larger tumour
Experimental: The antitumor activity of compounds was measured in mice bearing transplantable tumors. Survival or tumor size were measured and the results are expressed as the measurement made in the treated group (T) divided by the measurement made in the vehicle treated control group (C). The tumor model used in this assay is Adenocarcinoma 755 (subcutaneous) in B6D2F1 (BDF1) mice

With `ClCCNCCCCNCCCl` as the compound, how does the T/C (dose: 0.87 mg/kg/injection) read?
The T/C was 136 % of control [survivor count not shown].

And the T/C (dose: 1.75 mg/kg/injection)?
Its T/C is 117 % of control [survivor count not shown].

And the T/C (dose: 3.5 mg/kg/injection)?
Its T/C is 54 % of control [survivor count not shown].

What about the T/C (dose: 7.0 mg/kg/injection) of the same compound?
Its T/C is 39 [survivor count not shown], 42 [survivor count not shown], 66 % of control [survivor count not shown].

And the T/C (dose: 14.0 mg/kg/injection)?
Its T/C is 36 [survivor count not shown] and 78 % of control [survivor count not shown].

And the T/C (dose: 28.0 mg/kg/injection)?
The T/C was 14 [survivor count not shown] and 36 % of control [survivor count not shown].

What about the T/C (dose: 56.0 mg/kg/injection) of the same compound?
The T/C was 8 % of control [survivor count not shown].
